Measurements: US20050226879A1, “Methods and compositions related to inhibiting nuclear envelope breakdown” (priority 2002, published 2005)
Results are given in words; binding and its absence hold for the method and conditions named. Some results given as binding are weak or reduced against the parent protein; the word gives no strength.

By UniProt entry, the sequences of proteins in these tests, tags left out. Residues count along the entry.
UniProt P49790, residues 658-891: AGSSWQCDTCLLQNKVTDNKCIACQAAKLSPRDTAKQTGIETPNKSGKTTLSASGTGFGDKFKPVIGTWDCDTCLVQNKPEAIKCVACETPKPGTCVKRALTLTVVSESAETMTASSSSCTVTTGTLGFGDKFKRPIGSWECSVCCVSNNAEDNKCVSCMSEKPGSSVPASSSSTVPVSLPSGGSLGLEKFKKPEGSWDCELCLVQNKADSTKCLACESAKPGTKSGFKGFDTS

What was measured:
[1] = molecular target: GST-hZnF (GST fusion of the Nup153 zinc finger domain used as phage display target) (UniProt P49790); test: phage display selection on the Nup153 zinc finger
[2] = molecular target: GST-hZnF (GST fusion of the Nup153 zinc finger domain used as phage display target) (UniProt P49790); test: phage display selection, three rounds, on GST-hZnF immobilized on glutathione beads

Binder	binding [1]	binding [2]
CTHPFTHECGGGS [ZNFPHD1 peptide]	binds	binds
CGEHVRPSCGGGS [SEQ ID NO 31 peptide (…), second peptide from the ZnF phage display screen]	–	binds
